In patent US20020198172A1, “Method of treating motor neuron diseases and demyelinating diseases with citicoline” (priority 1997, published 2002):
At least one structure is not confirmed: it was looked up by name or label, or the drawing left a doubt.

Tested on: transgenic mice expressing familial ALS-linked mutations in the cytoplasmic enzyme SOD1
Experiment: ALS animal model (Example 5)
Assay type: in vivo
Settings: 500 mg/kg citicoline i.p. five days a week, about three months

`C[N+](C)(C)CCOP(=O)(O)OP(=O)([O-])OC[C@H]1O[C@@H](n2ccc(N)nc2=O)[C@H](O)[C@@H]1O` [citicoline, cytidine-5′-diphosphocholine] was tested, and the “survival over control animals” value was “enhanced survival over control animals”.
